## Drug screen on melanoma cell lines: apoptosis marker

Values as published with doi:10.1371/journal.pone.0140310, rounded.

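Human melanoma cell lines in 1,536-well plates were treated with a pair of drugs for 72 h, then fixed, stained and imaged. Each value is the cleaved-PARP-positive fraction of nuclei relative to DMSO-treated wells, in %, so that 100 equals the control and higher values mean more apoptosis. Concentrations were fixed for each drug; these are the higher of two levels. No replicate spread is given; individual values may be noisy. The marker varies much from line to line, for technical or biological reasons.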
An unselected part of the screen is shown.

Drug key:
LFM-A13 (10000 nM): C/C(O)=C(\C#N)C(=O)Nc1cc(Br)ccc1Br
nutlin-3 (500 nM): COc1ccc(C2=N[C@@H](c3ccc(Cl)cc3)[C@@H](c3ccc(Cl)cc3)N2C(=O)N2CCNC(=O)C2)c(OC(C)C)c1
cisplatin (8000 nM): N.N.[Cl][Pt][Cl]
YM155 (2 nM): COCC[n+]1c2c(n(Cc3cnccn3)c1C)C(=O)c1ccccc1C2=O
BMS-536924 (1000 nM): Cc1cc(N2CCOCC2)cc2[nH]c(-c3c(NC[C@@H](O)c4cccc(Cl)c4)cc[nH]c3=O)nc12
GW9662 (10000 nM): O=C(Nc1ccccc1)c1cc([N+](=O)[O-])ccc1Cl
STA-4783 (30 nM): CN(NC(=O)CC(=O)NN(C)C(=S)c1ccccc1)C(=S)c1ccccc1
MK-2206 (2000 nM): NC1(c2ccc(-c3nc4ccn5c(=O)[nH]nc5c4cc3-c3ccccc3)cc2)CCC1
vismodegib (5000 nM): CS(=O)(=O)c1ccc(C(=O)Nc2ccc(Cl)c(-c3ccccn3)c2)c(Cl)c1
U73122 (2000 nM): COc1ccc2c(c1)CCC1C2CCC2(C)C(NCCCCCCN3C(=O)C=CC3=O)CCC12 (centres undefined)

Pair: cisplatin + U73122
UACC-62: 291
IST-MEL1: 54.4

Pair: GW9662 + MK-2206
UACC-62: 417
IST-MEL1: 70.3

Pair: BMS-536924 + YM155
UACC-62: 150
IST-MEL1: 272

Pair: nutlin-3 + YM155
UACC-62: 351
IST-MEL1: 156

Pair: BMS-536924 + cisplatin
UACC-62: 97.3
IST-MEL1: 167

Pair: GW9662 + YM155
UACC-62: 362
IST-MEL1: 132

Pair: U73122 + BMS-536924
UACC-62: 439
IST-MEL1: 276

Pair: MK-2206 + BMS-536924
UACC-62: 174
IST-MEL1: 119

Pair: cisplatin + YM155
UACC-62: 259
IST-MEL1: 284

Pair: U73122 + GW9662
UACC-62: 132
IST-MEL1: 61.1

Pair: YM155 + U73122
UACC-62: 299
IST-MEL1: 144

Pair: GW9662 + nutlin-3
UACC-62: 178
IST-MEL1: 136

Pair: STA-4783 + nutlin-3
UACC-62: 152
IST-MEL1: 198

Pair: MK-2206 + cisplatin
UACC-62: 230
IST-MEL1: 93.7

Pair: STA-4783 + BMS-536924
UACC-62: 153
IST-MEL1: 420

Pair: nutlin-3 + U73122
UACC-62: 285
IST-MEL1: 31.1

Pair: MK-2206 + YM155
UACC-62: 451
IST-MEL1: 262

Pair: STA-4783 + cisplatin
UACC-62: 102
IST-MEL1: 92.8

Pair: STA-4783 + LFM-A13
UACC-62: 207
IST-MEL1: 125

Pair: YM155 + STA-4783
UACC-62: 93.1
IST-MEL1: 242

Pair: vismodegib + STA-4783
UACC-62: 171
IST-MEL1: 183

Pair: LFM-A13 + vismodegib
UACC-62: 224
IST-MEL1: 80.8

Pair: LFM-A13 + GW9662
UACC-62: 418
IST-MEL1: 165

Pair: STA-4783 + U73122
UACC-62: 98.2
IST-MEL1: 56.3

Pair: nutlin-3 + cisplatin
UACC-62: 221
IST-MEL1: 76.1

Pair: cisplatin + LFM-A13
UACC-62: 195
IST-MEL1: 67.5

Pair: LFM-A13 + nutlin-3
UACC-62: 354
IST-MEL1: 126

Pair: vismodegib + BMS-536924
UACC-62: 60.4
IST-MEL1: 113

Pair: cisplatin + vismodegib
UACC-62: 84.6
IST-MEL1: 300

Pair: MK-2206 + LFM-A13
UACC-62: 210
IST-MEL1: 56.9

Pair: vismodegib + YM155
UACC-62: 186
IST-MEL1: 162

Pair: GW9662 + STA-4783
UACC-62: 277
IST-MEL1: 440

Pair: LFM-A13 + YM155
UACC-62: 104
IST-MEL1: 210

Pair: GW9662 + cisplatin
UACC-62: 225
IST-MEL1: 142

Pair: vismodegib + GW9662
UACC-62: 244
IST-MEL1: 41.6

Pair: GW9662 + BMS-536924
UACC-62: 89.1
IST-MEL1: 28.8

Pair: STA-4783 + MK-2206
UACC-62: 127
IST-MEL1: 123

Pair: LFM-A13 + U73122
UACC-62: 463
IST-MEL1: 184

Pair: LFM-A13 + BMS-536924
UACC-62: 170
IST-MEL1: 141

The last 4 entries again:

{"pair": "GW9662 + BMS-536924", "UACC-62": 89.1, "IST-MEL1": 28.8}
{"pair": "STA-4783 + MK-2206", "UACC-62": 127, "IST-MEL1": 123}
{"pair": "LFM-A13 + U73122", "UACC-62": 463, "IST-MEL1": 184}
{"pair": "LFM-A13 + BMS-536924", "UACC-62": 170, "IST-MEL1": 141}